In the supplement of paper PMC7024190:
This is one part of the list. Single values are uncertain here, since repeats match poorly.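 The cells were human embryonic kidney cells carrying a Renilla luciferase gene, driven by the HSV-TK promoter, on a plasmid put in briefly by transfection. This is the first-round screen of about ten thousand compounds, looking for ones that raise reporter output.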

tested on: HEK 293FT; assay: log relative Renilla luciferase luminescence (reporter expression vs reference, reference not stated) (log (base not stated)); higher = higher recombinant reporter expression; conditions: 10 µM; time after transfection 48 h

SMILES | log
CC/C=C\CC1=C(C)CCC1=O [Jasmone] | 0.0999
Nc1nc2[nH]cc(CCc3ccc(C(=O)N[C@@H](CCC(=O)O)C(=O)O)cc3)c2c(=O)[nH]1 [Pemetrexed Disodium Heptahydrate] | -0.707
c1ccc(Cc2nc3ccccc3[nH]2)cc1 [Bendazol] | 0.1
Cc1cc2nc3c(=O)[nH]c(=O)nc-3n(C[C@H](O)[C@H](O)[C@H](O)CO)c2cc1C [Riboflavin] | 0.123
C=C(C)[C@@H]1CC[C@@H](C)C[C@H]1O [Isopulegol] | 0.0262
Cn1c(=O)c2[nH]c(Br)nc2n(C)c1=O [Bromotheamine] | 0.0555
O=C(O)c1ccccc1Nc1ccn2c(=O)c3ccccc3nc2n1 [Pyrimidant] | 0.148
O=C(O)CCCC[C@@H]1SC[C@@H]2NC(=O)N[C@@H]21 [D-Biotin] | -0.401
Cc1nc2c(c3c1[nH]c1ccccc13)C(=O)CC(C)(C)C2 [Carbacetam] | -0.769
COc1nccnc1NS(=O)(=O)c1ccc(N)cc1 [Sulfalene] | 0.0623
C=C1CC[C@H](O)C/C1=C/C=C1\CCC[C@]2(C)[C@@H]([C@H](C)CCCC(C)C)CC[C@@H]12 [Colecalciferol] | -0.0565
O=C(O)COc1ccccc1/C=N/NC(=O)c1ccncc1 [Aconiazide] | 0.205
COc1ccc(-n2c(C)c(C(C)=O)c3cc(O)ccc32)cc1 [Amendol] | 0.112
CNCCC(Oc1ccc(C(F)(F)F)cc1)c1ccccc1 (stereo unspecified) [Fluoxetine] | 0.128
CC(/C=C1\SC(=S)N(CC(=O)O)C1=O)=C\c1ccccc1 [Epalrestat] | -0.027
Cc1cc(C)nc(NS(=O)(=O)c2ccc(N)cc2)n1 [Sulfadimidine] | 0.191
NC(=O)N1c2ccccc2CCc2ccccc21 [Dihydrocarbamazepine] | -0.632
O=C(O)c1cccc(C(=O)O)n1 [Dipicolinic acid] | 0.106
O=C(O)COc1cc(OCC(=O)O)c2c(=O)cc(-c3ccccc3)oc2c1 [Flavodic acid] | 0.0345
CCOC(=O)c1c(N)sc2c1CCN(Cc1ccccc1)C2 [Tinoridine] | -0.758
CCCCN1CCCC1C(=O)Nc1c(C)cc(C)cc1C (stereo unspecified) [Bumecaine] | -0.118
CC(=O)OCCNC(=O)c1cccnc1 | -0.141
NCCCC[C@H](N[C@@H](CCc1ccccc1)C(=O)O)C(=O)N1CCC[C@H]1C(=O)O [Lisinopril] | 0.127
C=CCc1ccc(O)c(O)c1 [Hydroxychavicol] | 0.0586
O=C1c2ccccc2C(=O)c2c(O)ccc(O)c21 [Quinizarin] | 0.114
CC(=O)/C=C/C=C(\C)CCC=C(C)C [Pseudoionone] | 0.0405

Look-ups from the list.
log, C=C1CC[C@H](O)C/C1=C/C=C1\CCC[C@]2(C)[C@@H]([C@H](C)CCCC(C)C)CC[C@@H]12 [Colecalciferol] is entered as -0.0565
log, O=C(O)CCCC[C@@H]1SC[C@@H]2NC(=O)N[C@@H]21 [D-Biotin] is entered as -0.401
